This assay in a line: qHTS Assay for Lipid Storage Modulators in Drosophila S3 Cells.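 On cell number change: cells counted by Cell Tracker Red CMTPX staining in the red channel.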 The following applies: BODIPY lipid droplet fluorescence, 18-24 h; for cell number change: measured here: cell count max response, cells fed with added oleic acid. Summed up: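 Drosophila S3 cells loaded with oleic acid (400 uM, as added) and compounds at several concentrations; lipid droplets imaged by 488-nm laser-scanning cytometry, 500–530 nm intensity and object ratio to cell channel. Percent activity normalized to 20 uM Triacsin C.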
(Quantitative high-throughput screening tests each substance at several concentrations.)

[1] abbreviates: measured here: cell number channel AC50, cells fed with added oleic acid.
Setting [2] is: measured here: lipid fluorescence (Fed channel) AC50, cells fed with added oleic acid.

Each structure is given as a SMILES string. The list shows a part of the results. These are further read-outs of the screen, such as a control signal, another cell line or another target. No call is given for them. Compounds called inactive in the main read-out are mostly missing here. Potencies come from curve fits of mixed quality, noted in brackets.

What is called AC50 is the midpoint of the concentration-response curve, whichever way the signal moves.

With `O=c1c(-c2ccccc2)cnc2n1CCS2`, the cell number change is -10.8%.
`Cc1ccc(S(=O)CCNC(=O)Cc2ccccc2)cc1` (stereo not drawn): the cell number change was -14.9%. Also, the AC50 under setting [1] is 0.82 µM [falling, full curve, poor fit]. Besides, the AC50 under setting [2] is 0.326 µM [falling, full curve, poor fit].
Consider `COc1cccc(NC(=S)N2CCN(Cc3ccccc3)CC2)c1`, for which the cell number change was found to be 7.46%. Moreover, the AC50 under setting [2] was 2.06 µM [rising, partial curve, poor fit].
In the case of `COc1ccc(-c2cc(C(F)(F)F)c3c(n2)sc2c(O)cc(=O)[nH]c23)c(OC)c1`, the AC50 under setting [2] was 0.651 µM [rising, single point].
In the case of `Cc1cccc(C)c1NC(=O)CC1SC2=NCCN2C1=O` (stereo not drawn), the cell number change is -14.8%. For the same compound, the AC50 under setting [1] was 0.0651 µM [falling, full curve, poor fit].
For the compound `CCn1ncc(C2=NOC(C(=O)NCC(C)C)C2)c1C` (stereo not drawn), the cell number change is -55%. The concentration at half-maximal activity (AC50) under setting [1] was 29.1 µM [falling, single point].
With `O=C(Oc1cccnc1)c1ccco1`, the cell number change was -31.5%. Further, the concentration at half-maximal activity (AC50) under setting [1] was 0.231 µM [falling, full curve].
Consider `Cc1csc(CNC(=O)CC2C(=O)NCCN2Cc2ccc(F)cc2Cl)n1` (stereo not drawn), for which the cell number change was found to be 4.24%.
For `COc1ccc2c(c1)[C@@H]1[C@H](CO2)[C@H](c2ccccc2)[C@]2(C)C(=O)Nc3ccc(C)cc3C(=O)N12`, the AC50 under setting [2] is 3.26 µM [falling, single point].
For the compound `CCCC(=O)Nc1nnc(SCC(=O)N2C(C)CCCC2C)s1` (stereo not drawn), the cell number change came out at 12.4%. For the same compound, the AC50 under setting [2] is 6.51 µM [falling, single point].
With `Nc1ccc(C(=O)N2N=C(c3ccc(F)cc3)CC2(O)C(F)(F)F)cc1` (stereo not drawn), the cell number change amounted to 4.26%. Also, the half-maximal activity concentration (AC50) under setting [1] was 0.0517 µM [rising, full curve, poor fit]. For the same compound, the AC50 under setting [2] is 29.1 µM [rising, single point].
Turning to `COC1=C(Nc2ccc(OC)cc2)C(=O)c2ccccc2C1=O`, the cell number change is -78.8%. The AC50 under setting [1] was 29.1 µM [falling, single point]. In addition, the AC50 under setting [2] is 23.1 µM [falling, single point].
Turning to `COc1ccc(CC(=O)N2CC3(C)CC2CC(C)(C)C3)cc1OC` (stereo not drawn), the cell number change stood at 13.6%. In addition, the AC50 under setting [2] was 0.0058 µM [rising, full curve, poor fit].
As for `O=C(Nc1cccc(O)c1)c1ccc(S(=O)(=O)N2CCCCCC2)cc1`, the cell number change was -52.8%. Also, the AC50 under setting [1] is 36.6 µM [falling, partial curve, poor fit]. For the same compound, the AC50 under setting [2] is 6.51 µM [falling, partial curve, poor fit].
`O=C(O)CCc1ccc(-c2cccs2)n1CCC(=O)O`: the cell number change is -7.53%. Besides, under setting [2], the AC50 was 0.058 µM [rising, full curve, poor fit].
With `Cc1ccccc1OCC(=O)NCCC(=O)O`, the cell number change was determined as 5.01%. Further, the AC50 under setting [2] was 0.058 µM [falling, full curve, poor fit].
Consider `O=C(NCCC1=CCCCC1)C1CCN(S(=O)(=O)c2cccc3nonc23)CC1`, for which the cell number change amounted to 11.7%. Besides, the AC50 under setting [2] is 25.9 µM [rising, single point].
In the case of `Cc1ccc(NC(=O)COC(=O)C2CSC3(C)CCC(=O)N23)c(C)c1` (stereo not drawn), the cell number change is -0.55%. Further, the AC50 under setting [2] was 0.00461 µM [falling, full curve, poor fit].
For the compound `COc1ccc([C@H]2CC(=O)C=C(c3cccc(OC(F)(F)F)c3)C2)cc1`, the cell number change was -30.3%. In addition, the AC50 under setting [1] was 29.1 µM [falling, partial curve].
For `COc1ccccc1N1CCN(C(=O)C2CCC(Cn3c(=S)[nH]c4ccccc4c3=O)CC2)CC1` (stereo not drawn), the cell number change was determined as 9.94%. Also, under setting [2], the AC50 is 29.1 µM [rising, single point].
`CC(=O)c1ccc(NC(=O)C(C)Sc2nnnn2C)cc1` (stereo not drawn): the cell number change is -3.17%. In addition, the AC50 under setting [2] was 0.00517 µM [falling, full curve, poor fit].
Regarding `Cc1ccc(C)c(N2CCN(C(=O)C3CCN(S(=O)(=O)c4c(C)noc4C)CC3)CC2)c1`, the cell number change was -13.9%. For the same compound, under setting [2], the AC50 was 1.46 µM [falling, full curve].
For the compound `Cc1nc(N2CCN(C(c3ccccc3)c3ccccc3)CC2)nc2c1C(=O)CCC2`, the AC50 by setting is: under setting [1], 5.17 µM [falling, single point]; under setting [2], 0.58 µM [falling, full curve].
For `Nc1nc2n(n1)C(c1ccco1)CC(c1ccc(Cl)c(Cl)c1)N2` (stereo not drawn), the cell number change is -20.1%.
Turning to `O=C(Cn1cnnn1)OCC(=O)c1ccc(Cl)s1`, the cell number change came out at 9.85%. For the same compound, the AC50 under setting [2] is 0.58 µM [falling, full curve, poor fit].
Take `Cc1ccc(NS(=O)(=O)c2ccc3c(c2)NC(=O)C(C)C(=O)N3)cc1C` (stereo not drawn): the cell number change turned out to be 18.7%.
`CCOC(=O)N1CCN(Cc2ccc(O)c3ncccc23)CC1`: the cell number change is -18.2%. In addition, the AC50 under setting [2] was 14.6 µM [falling, single point].
Turning to `O=C(Nc1cccnc1)c1ccc(Cl)c(S(=O)(=O)N2CCCCCC2)c1`, the cell number change is -3.69%.
As to `CC1CCCC(C)N1C(=O)CN1CCN(c2nc(-c3ccc(F)cc3)cs2)CC1` (stereo not drawn), the cell number change is -76%. Besides, under setting [1], the AC50 is 29.1 µM [falling, single point]. For the same compound, the AC50 under setting [2] is 29.1 µM [falling, partial curve].
In the case of `O=C(CCC(=O)Nc1ccccc1)NNC(=O)c1ccccc1Cl`, the cell number change was -15.6%. Under setting [2], the AC50 was 5.17 µM [falling, partial curve].
In the case of `Cc1cc(C(=O)NC(C)CCc2ccccc2)ccc1[N+](=O)[O-]` (stereo not drawn), the cell number change was -3.65%.
On the same count and under the same terms, then `CCN(CC)S(=O)(=O)c1ccc(C)c(NC(=O)Cc2ccc(S(=O)(=O)N3CCOCC3)s2)c1`, with 8.5%.
Consider `O=S(=O)(NC12CC3CC(CC(C3)C1)C2)c1ccc(F)cc1`, for which the cell number change is -8%. Moreover, the AC50 under setting [2] is 6.51 µM [falling, single point].
Take `CC(C)Oc1ccc(C2CC(=O)N(c3cccc(Br)c3)C2=O)cc1` (stereo not drawn): the cell number change turned out to be 11.7%. In addition, the AC50 under setting [1] is 0.0058 µM [rising, full curve, poor fit].
Take `Cc1ccccc1C(=O)NC(=S)NCCC1=CCCCC1`: the cell number change was -14.9%.
Regarding `Cc1cc(C)n(-c2c(F)c(F)c(CO)c(F)c2F)n1`, the AC50 under setting [1] was 0.58 µM [falling, single point].
As for `Nc1n[nH]c2c1C1(CCCCC1)Cc1ccccc1-2`, the cell number change is -61.1%. Besides, under setting [1], the AC50 was 20.6 µM [falling, single point]. The AC50 under setting [2] was 18.4 µM [falling, single point].
`C(=N\Nc1nc2ccccc2[nH]1)/c1c[nH]c2ccccc12`: the cell number change was -49.7%. Also, the AC50 under setting [1] was 16.4 µM [falling, partial curve]. Further, the AC50 under setting [2] was 29.1 µM [falling, single point].
Consider `Cc1cc(C)cc(OCC(=O)O/N=C(\N)Cc2ccc([N+](=O)[O-])cc2)c1`, for which the cell number change is 16.4%. Further, under setting [1], the AC50 was 2.59 µM [falling, single point]. The AC50 under setting [2] was 5.17 µM [falling, single point].
As for `COc1ccc(C(CNC(=O)c2ccc(-c3ccccc3)cc2)N(C)C)cc1OC` (stereo not drawn), the cell number change is 12.6%. The AC50 under setting [2] was 29.1 µM [falling, single point].
As to `Cc1nn(C)cc1CN(C)C(=O)c1sc2cccc(Cl)c2c1Cl`, the cell number change is -3.7%. Under setting [2], the AC50 was 0.00461 µM [rising, full curve, poor fit].
As for `Cc1c(N=C2SC(CC(=O)Nc3ccccc3)C(=O)N2CCN2CCOCC2)c(=O)n(-c2ccccc2)n1C` (stereo not drawn), the AC50 under setting [2] was 6.51 µM [rising, single point].
Still for that read-out and setting: then `Cc1ccc(Cl)cc1NC(=O)C1CCCN(c2cnccn2)C1` (stereo not drawn), with 1.84 µM [falling, partial curve, poor fit].
Consider `CSCCC(NC(=O)c1ccco1)C(=O)N1CCC(C(N)=O)CC1` (stereo not drawn), for which the cell number change was -23.2%. Further, under setting [1], the AC50 was 6.51 µM [falling, single point]. Moreover, the AC50 under setting [2] was 3.26 µM [falling, full curve].
For `COc1ccc(NC(=O)CN(C2CCCCC2)S(C)(=O)=O)cc1Cl`, the cell number change turned out to be 52.4%. Further, under setting [1], the AC50 is 8.2 µM [rising, partial curve, poor fit]. Besides, under setting [2], the AC50 was 6.51 µM [rising, single point].
With `CCCCN(C(=O)c1ccc(-n2nc(C)cc2C)cc1)c1c(N)n(CCC)c(=O)[nH]c1=O`, the cell number change was -2.96%. Moreover, the AC50 under setting [2] was 10.3 µM [falling, partial curve].
In the case of `CC(C)(C)c1ccc(C(=O)CS(=O)(=O)c2ccccc2)cc1`, the cell number change was found to be 14.7%. Also, the AC50 under setting [1] is 1.64 µM [rising, partial curve, poor fit].
On to `Cc1ccc(O)c(C=Nc2cc(C)ccc2O)c1`, for which, under setting [2], the AC50 is 6.51 µM [falling, partial curve].
For the compound `N#Cc1nc(Cc2ccccc2)oc1NCCCn1ccnc1`, the cell number change was -19.6%. Moreover, the AC50 under setting [2] was 5.17 µM [falling, full curve, poor fit].
Turning to `COc1cc2c(cc1OC)C(C(=O)N1CCCC1)C(c1ccccc1F)N(C)C2=O` (stereo not drawn), the cell number change was -70.5%. Besides, under setting [1], the AC50 was 4.11 µM [falling, full curve]. Under setting [2], the AC50 was 5.17 µM [falling, full curve].
For `N#CCC(=O)N/N=C\c1cccc(OC/C=C/c2ccccc2)c1`, the cell number change is 5.57%. In addition, the AC50 under setting [2] was 6.51 µM [rising, partial curve, poor fit].
Regarding `Cc1cccc(-c2noc(CN(C(=O)c3ccc(Br)o3)C(C)C)n2)c1`, the AC50 under setting [1] was 1.46 µM [rising, full curve] and the AC50 under setting [2] was 0.517 µM [rising, full curve].
For the compound `COc1ccc(NC(=O)c2cccnc2NCCc2ccccc2)cc1`, the cell number change amounted to 8.37%. Also, under setting [2], the AC50 was 0.0164 µM [rising, full curve].
`CCOc1cc(C2C3=C(CCCC3=O)NC3=C2C(=O)CCC3)ccc1OCCO`: the cell number change amounted to 9.94%. Also, under setting [2], the AC50 was 29.1 µM [rising, single point].
Regarding `O=C(NNc1nc2c(F)cccc2s1)C1=COCCO1`, the cell number change is -13%. The AC50 under setting [1] is 0.116 µM [falling, full curve, poor fit]. Besides, the AC50 under setting [2] is 0.103 µM [falling, full curve, poor fit].
For `C/C(=N\NC(=O)C(=O)Nc1c(C)n(C)n(-c2ccccc2)c1=O)c1ccc(Cl)s1`, the AC50 under setting [1] was 6.51 µM [falling, single point] and the AC50 under setting [2] was 5.17 µM [falling, full curve].
For `COc1cc(-c2nnc(NC(=O)CS(=O)(=O)c3ccc(F)cc3)o2)cc(OC)c1OC`, the cell number change amounted to 1.92%. Under setting [2], the AC50 was 29.1 µM [rising, single point].
Regarding `O=C(Cn1nc(C(=O)O)c2ccccc2c1=O)NCCC1=CCCCC1`, under setting [2], the AC50 is 1.84 µM [falling, partial curve].

The record behind these values is PubChem BioAssay AID2685 (National Center for Advancing Translational Sciences (NCATS), 2010).
